# The supplement of paper PMC8728848
# The other results are listed elsewhere or left out.
# Key:
# Assay in all cases: glycan array binding signal (z-score within array); higher = stronger binding
# Details in all cases: glycan notation: IUPAC condensed, linker removed
# [1] = molecular target: Fuc(a1-2)Gal
# How it was run: (§1)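 Glycan array data came from 3228 arrays in the Consortium for Functional Glycomics database, and only arrays with an available protein sequence were kept. Glycan names were put into IUPAC-condensed notation, and columns mapping to the same glycan were averaged. The binding signal is a within-array Z-score, averaged across arrays of one protein sequence run at different concentrations or buffers and across linkers. A negative Z-score can be read as non-binding.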
# [2] = molecular target: Fuc(a1-2)Gal(b1-3)GalNAc
# How it was run: as §1
# [3] = molecular target: Fuc(a1-2)Gal(b1-3)GalNAc(a1-3)[Fuc(a1-2)]Gal(b1-4)Glc
# How it was run: as §1
# [4] = molecular target: Fuc(a1-2)Gal(b1-3)GalNAc(a1-3)[Fuc(a1-2)]Gal(b1-4)GlcNAc
# How it was run: as §1
# [5] = molecular target: Fuc(a1-2)Gal(b1-3)GalNAc(b1-3)Gal
# How it was run: as §1
# [6] = molecular target: Fuc(a1-2)Gal(b1-3)GalNAc(b1-3)Gal(a1-4)Gal(b1-4)Glc
# How it was run: as §1
# [7] = molecular target: Fuc(a1-2)Gal(b1-3)GalNAc(b1-4)[Neu5Ac(a2-3)]Gal(b1-4)Glc
# How it was run: as §1
# [8] = molecular target: Fuc(a1-2)Gal(b1-3)GlcNAc
# How it was run: as §1
# [9] = molecular target: Fuc(a1-2)Gal(b1-3)GlcNAc(b1-2)Man(a1-3)[Fuc(a1-2)Gal(b1-3)GlcNAc(b1-2)Man(a1-6)]Man(b1-4)GlcNAc(b1-4)GlcNAc
# How it was run: as §1
# [10] = molecular target: Fuc(a1-2)Gal(b1-3)GlcNAc(b1-2)Man(a1-3)[Fuc(a1-2)Gal(b1-3)GlcNAc(b1-2)Man(a1-6)]Man(b1-4)GlcNAc(b1-4)[Fuc(a1-6)]GlcNAc
# How it was run: as §1
# [11] = molecular target: Fuc(a1-2)Gal(b1-3)GlcNAc(b1-3)Gal(b1-4)Glc
# How it was run: as §1
# [12] = molecular target: Fuc(a1-2)Gal(b1-3)GlcNAc(b1-3)GalNAc
# How it was run: as §1
# [13] = molecular target: Fuc(a1-2)Gal(b1-3)GlcNAc(b1-3)[Fuc(a1-2)Gal(b1-3)GlcNAc(b1-6)]GalNAc
# How it was run: as §1
# [14] = molecular target: Fuc(a1-2)Gal(b1-3)GlcNAc(b1-3)[Gal(b1-4)GlcNAc(b1-6)]Gal(b1-4)Glc
# How it was run: as §1
# [15] = molecular target: Fuc(a1-2)Gal(b1-3)GlcNAc(b1-3)[Neu5Ac(a2-6)Gal(b1-4)GlcNAc(b1-6)]Gal(b1-4)Glc
# How it was run: as §1
# [16] = molecular target: Fuc(a1-2)Gal(b1-3)GlcNAc6S
# How it was run: as §1
# [17] = molecular target: Fuc(a1-2)Gal(b1-3)[Fuc(a1-4)]GlcNAc
# How it was run: as §1
# [18] = molecular target: Fuc(a1-2)Gal(b1-3)[Fuc(a1-4)]GlcNAc(b1-2)Man(a1-3)[Fuc(a1-2)Gal(b1-3)[Fuc(a1-4)]GlcNAc(b1-2)Man(a1-3)]Man(b1-4)GlcNAc(b1-4)GlcNAc
# How it was run: as §1
# [19] = molecular target: Fuc(a1-2)Gal(b1-3)[Fuc(a1-4)]GlcNAc(b1-2)Man(a1-3)[Fuc(a1-2)Gal(b1-3)[Fuc(a1-4)]GlcNAc(b1-2)Man(a1-6)]Man(b1-4)GlcNAc(b1-4)[Fuc(a1-6)]GlcNAc(b1-4)[Fuc(a1-6)]GlcNAc
# How it was run: as §1
# [20] = molecular target: Fuc(a1-2)Gal(b1-3)[Fuc(a1-4)]GlcNAc(b1-3)[Fuc(a1-3)[Gal(b1-4)]GlcNAc(b1-6)]Gal(b1-4)Glc
# How it was run: as §1
# [21] = molecular target: Fuc(a1-2)Gal(b1-3)[Fuc(a1-4)]GlcNAc(b1-3)[Gal(b1-4)GlcNAc(b1-6)]Gal(b1-4)Glc
# How it was run: as §1
# [22] = molecular target: Fuc(a1-2)Gal(b1-4)Glc
# How it was run: as §1
# [23] = molecular target: Fuc(a1-2)Gal(b1-4)Glc6S
# How it was run: as §1
# [24] = molecular target: Fuc(a1-2)Gal(b1-4)GlcNAc
# How it was run: as §1
# [25] = molecular target: Fuc(a1-2)Gal(b1-4)GlcNAc(b1-2)Man
# How it was run: as §1
# [26] = molecular target: Fuc(a1-2)Gal(b1-4)GlcNAc(b1-2)Man(a1-3)[Fuc(a1-2)Gal(b1-4)GlcNAc(b1-2)Man(a1-6)]Man(b1-4)GlcNAc(b1-4)GlcNAc
# How it was run: as §1
# [27] = molecular target: Fuc(a1-2)Gal(b1-4)GlcNAc(b1-2)Man(a1-3)[Fuc(a1-2)Gal(b1-4)GlcNAc(b1-2)Man(a1-6)]Man(b1-4)GlcNAc(b1-4)[Fuc(a1-6)]GlcNAc
# How it was run: as §1
# [28] = molecular target: Fuc(a1-2)Gal(b1-4)GlcNAc(b1-2)[Fuc(a1-2)Gal(b1-4)GlcNAc(b1-4)]Man(a1-3)[Fuc(a1-2)Gal(b1-4)GlcNAc(b1-2)Man(a1-6)]Man(b1-4)GlcNAc(b1-4)GlcNAc
# How it was run: as §1
# [29] = molecular target: Fuc(a1-2)Gal(b1-4)GlcNAc(b1-3)Gal(b1-4)GlcNAc
# How it was run: as §1
# [30] = molecular target: Fuc(a1-2)Gal(b1-4)GlcNAc(b1-3)Gal(b1-4)GlcNAc(b1-2)Man(a1-3)[Fuc(a1-2)Gal(b1-4)GlcNAc(b1-3)Gal(b1-4)GlcNAc(b1-2)Man(a1-6)]Man(b1-4)GlcNAc(b1-4)GlcNAc
# How it was run: as §1
binder,measurement,setting,value
Aap arpt (Staphylococcus epidermidis) (protein) NNEAPQMSSTLQAEEGSNAEAPQSEPTKAEEGGNAEAAQSEPTKAEEGGNAEAPQSEPTKAEEGGNAEAAQSEPTKTEEGSNVKAAQSEPTKAEEGSNAEAPQSEPTKTEEGSNAKAAQSEPTKAEEGGNAEAAQSEPTKTEEGSNAEAPQSEPTKAEEGGYAEAPQSEPTKTEEGGNAEAPNVPTIKA,glycan array binding signal (z-score),[1],-0.31
same,glycan array binding signal (z-score),[2],-0.765
same,glycan array binding signal (z-score),[3],-0.816
same,glycan array binding signal (z-score),[4],-0.313
same,glycan array binding signal (z-score),[5],-2.19
same,glycan array binding signal (z-score),[6],-2.29
same,glycan array binding signal (z-score),[7],-0.337
same,glycan array binding signal (z-score),[8],-1.01
same,glycan array binding signal (z-score),[9],1.6
same,glycan array binding signal (z-score),[10],-0.878
same,glycan array binding signal (z-score),[11],0.811
same,glycan array binding signal (z-score),[12],0.152
same,glycan array binding signal (z-score),[13],0.246
same,glycan array binding signal (z-score),[14],0.495
same,glycan array binding signal (z-score),[15],-1.65
same,glycan array binding signal (z-score),[16],-0.83
same,glycan array binding signal (z-score),[17],0.57
same,glycan array binding signal (z-score),[18],-0.438
same,glycan array binding signal (z-score),[19],1.28
same,glycan array binding signal (z-score),[20],0.019
same,glycan array binding signal (z-score),[21],1.14
same,glycan array binding signal (z-score),[22],-0.254
same,glycan array binding signal (z-score),[23],-1.03
same,glycan array binding signal (z-score),[24],0.299
same,glycan array binding signal (z-score),[25],-0.069
same,glycan array binding signal (z-score),[26],1.23
same,glycan array binding signal (z-score),[27],-0.547
same,glycan array binding signal (z-score),[28],0.036
same,glycan array binding signal (z-score),[29],-0.424
same,glycan array binding signal (z-score),[30],-1.3

# Quoted at random: 2 entries already listed, in no set order.
binder,measurement,setting,value
Aap arpt (Staphylococcus epidermidis) (protein) NNEAPQMSSTLQAEEGSNAEAPQSEPTKAEEGGNAEAAQSEPTKAEEGGNAEAPQSEPTKAEEGGNAEAAQSEPTKTEEGSNVKAAQSEPTKAEEGSNAEAPQSEPTKTEEGSNAKAAQSEPTKAEEGGNAEAAQSEPTKTEEGSNAEAPQSEPTKAEEGGYAEAPQSEPTKTEEGGNAEAPNVPTIKA,glycan array binding signal (z-score),[27],-0.547
same,glycan array binding signal (z-score),[11],0.811
